Test results taken from PMC8653649, “Promising Hybrids Derived from S-Allylcysteine and NSAIDs Fragments against Colorectal Cancer: Synthesis, In-vitro Evaluation, Drug-Likeness and In-silico ADME/tox Studies” (Iranian Journal of Pharmaceutical Research : IJPR, 2021).

Tested on: SW480 human colon adenocarcinoma cells
Assay: Sulforhodamine B (SRB) growth inhibition / cytotoxicity, SW480;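 also: cells exposed to graded doses from 10^-5 to 0.2 mM, with 1% DMSO as vehicle control, and cellular protein quantified by SRB staining after trichloroacetic acid fixation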
Assay type: cell-based
Settings: mean ± SE

COc1ccc2cc([C@H](C)C(=O)O)ccc2c1 [Naproxen, reference compound] was tested, and the IC50 (24 h) was over 0.2 mM and the IC50 (48 h) was over 0.2 mM.
